Source: ChEMBL document CHEMBL4316593 (Eur J Med Chem, 2019)
This continues a long series; more values of the same kind are listed elsewhere.

Experiments:
Assay type in all cases: cell-based
Details in all cases: U-87MG ATCC
[1] = Inhibition of RTK/PI3K/AKT/mTOR signaling in human U87 cells assessed as up regulation of VPS51, GARP complex subunit gene expression at cytotoxic IC50 measured after 48 hrs relative to control
[2] = Inhibition of RTK/PI3K/AKT/mTOR signaling in human U87 cells assessed as down regulation of KBTBD8 gene expression at cytotoxic IC50 measured after 48 hrs relative to control
[3] = Inhibition of RTK/PI3K/AKT/mTOR signaling in human U87 cells assessed as down regulation of ZNF622 gene expression at cytotoxic IC50 measured after 48 hrs relative to control
[4] = Inhibition of RTK/PI3K/AKT/mTOR signaling in human U87 cells assessed as up regulation of UNC13D gene expression at cytotoxic IC50 measured after 48 hrs relative to control
[5] = Inhibition of RTK/PI3K/AKT/mTOR signaling in human U87 cells assessed as up regulation of FK506 binding protein 10 gene expression at cytotoxic IC50 measured after 48 hrs relative to control
[6] = Inhibition of RTK/PI3K/AKT/mTOR signaling in human U87 cells assessed as down regulation of ZFR gene expression at cytotoxic IC50 measured after 48 hrs relative to control
[7] = Inhibition of RTK/PI3K/AKT/mTOR signaling in human U87 cells assessed as up regulation of H1 histone family member 0 gene expression at cytotoxic IC50 measured after 48 hrs relative to control
[8] = Inhibition of RTK/PI3K/AKT/mTOR signaling in human U87 cells assessed as down regulation of CDC45 gene expression at cytotoxic IC50 measured after 48 hrs relative to control
[9] = Inhibition of RTK/PI3K/AKT/mTOR signaling in human U87 cells assessed as down regulation of ABCA3 gene expression at cytotoxic IC50 measured after 48 hrs relative to control
[10] = Inhibition of RTK/PI3K/AKT/mTOR signaling in human U87 cells assessed as up regulation of INSIG2 gene expression at cytotoxic IC50 measured after 48 hrs relative to control
[11] = Inhibition of RTK/PI3K/AKT/mTOR signaling in human U87 cells assessed as down regulation of FANCA gene expression at cytotoxic IC50 measured after 48 hrs relative to control
[12] = Inhibition of RTK/PI3K/AKT/mTOR signaling in human U87 cells assessed as down regulation of ARMCX5 gene expression at cytotoxic IC50 measured after 48 hrs relative to control
[13] = Inhibition of RTK/PI3K/AKT/mTOR signaling in human U87 cells assessed as down regulation of SLC9A3R1 gene expression at cytotoxic IC50 measured after 48 hrs relative to control
[14] = Inhibition of RTK/PI3K/AKT/mTOR signaling in human U87 cells assessed as up regulation of von Willebrand factor A domain containing 7 gene expression at cytotoxic IC50 measured after 48 hrs relative to control
[15] = Inhibition of RTK/PI3K/AKT/mTOR signaling in human U87 cells assessed as up regulation of GGA1 gene expression at cytotoxic IC50 measured after 48 hrs relative to control
[16] = Inhibition of RTK/PI3K/AKT/mTOR signaling in human U87 cells assessed as down regulation of CLK1 gene expression at cytotoxic IC50 measured after 48 hrs relative to control
[17] = Inhibition of RTK/PI3K/AKT/mTOR signaling in human U87 cells assessed as up regulation of LOXL2 gene expression at cytotoxic IC50 measured after 48 hrs relative to control
[18] = Inhibition of RTK/PI3K/AKT/mTOR signaling in human U87 cells assessed as down regulation of PPIL4 gene expression at cytotoxic IC50 measured after 48 hrs relative to control
[19] = Inhibition of RTK/PI3K/AKT/mTOR signaling in human U87 cells assessed as up regulation of CNTD2 gene expression at cytotoxic IC50 measured after 48 hrs relative to control
[20] = Inhibition of RTK/PI3K/AKT/mTOR signaling in human U87 cells assessed as up regulation of spermatogenesis associated serine rich 2 gene expression at cytotoxic IC50 measured after 48 hrs relative to control
[21] = Inhibition of RTK/PI3K/AKT/mTOR signaling in human U87 cells assessed as down regulation of CDKN3 gene expression at cytotoxic IC50 measured after 48 hrs relative to control
[22] = Inhibition of RTK/PI3K/AKT/mTOR signaling in human U87 cells assessed as down regulation of DHX16 gene expression at cytotoxic IC50 measured after 48 hrs relative to control
[23] = Inhibition of RTK/PI3K/AKT/mTOR signaling in human U87 cells assessed as up regulation of cytochrome b-245 alpha chain gene expression at cytotoxic IC50 measured after 48 hrs relative to control
[24] = Inhibition of RTK/PI3K/AKT/mTOR signaling in human U87 cells assessed as down regulation of CD274 gene expression at cytotoxic IC50 measured after 48 hrs relative to control
[25] = Inhibition of RTK/PI3K/AKT/mTOR signaling in human U87 cells assessed as down regulation of KNL1 gene expression at cytotoxic IC50 measured after 48 hrs relative to control
[26] = Inhibition of RTK/PI3K/AKT/mTOR signaling in human U87 cells assessed as up regulation of DMKN gene expression at cytotoxic IC50 measured after 48 hrs relative to control
[27] = Inhibition of RTK/PI3K/AKT/mTOR signaling in human U87 cells assessed as up regulation of SLC35F2 gene expression at cytotoxic IC50 measured after 48 hrs relative to control
[28] = Inhibition of RTK/PI3K/AKT/mTOR signaling in human U87 cells assessed as up regulation of NOTCH1 gene expression at cytotoxic IC50 measured after 48 hrs relative to control
[29] = Inhibition of RTK/PI3K/AKT/mTOR signaling in human U87 cells assessed as up regulation of G protein-coupled receptor 155 gene expression at cytotoxic IC50 measured after 48 hrs relative to control
[30] = Inhibition of RTK/PI3K/AKT/mTOR signaling in human U87 cells assessed as up regulation of myeloid associated differentiation marker gene expression at cytotoxic IC50 measured after 48 hrs relative to control
[31] = Inhibition of RTK/PI3K/AKT/mTOR signaling in human U87 cells assessed as down regulation of DPY19L2P2 gene expression at cytotoxic IC50 measured after 48 hrs relative to control
[32] = Inhibition of RTK/PI3K/AKT/mTOR signaling in human U87 cells assessed as down regulation of FAM53B gene expression at cytotoxic IC50 measured after 48 hrs relative to control

CC(=O)C(=NNc1ccccc1C#N)C(C)=O
log2FC [1]: 0.849 | log2FC [2]: -3.86 | log2FC [3]: -1.08 | log2FC [4]: 2.34 | log2FC [5]: 1.18 | log2FC [6]: -0.472 | log2FC [7]: 0.935 | log2FC [8]: -1.73 | log2FC [9]: -0.825 | log2FC [10]: 1.92 | log2FC [11]: -0.864 | log2FC [12]: -1.31 | log2FC [13]: -0.608 | log2FC [14]: 1.25 | log2FC [15]: 0.531 | log2FC [16]: -1.08 | log2FC [17]: 2.67 | log2FC [18]: -0.509 | log2FC [19]: 2.25 | log2FC [20]: 1.06 | log2FC [21]: -0.814 | log2FC [22]: -0.641 | log2FC [23]: 0.815 | log2FC [24]: -1.7 | log2FC [25]: -1.11 | log2FC [26]: 0.637 | log2FC [27]: 0.431 | log2FC [28]: 0.636 | log2FC [29]: 1.26 | log2FC [30]: 0.88 | log2FC [31]: -4.78 | log2FC [32]: -1
